US20250171536A1
No constants are given. Whether binding was seen depends on the method and setting. Some binding calls cover weakened binding; strength is not graded here.

Target: Cyno CD117, soluble (cynoCD117 1-520) (cynomolgus monkey)
Experiment: SPR Biacore 4000, captured antibody, soluble CD117 analyte

binding: binds
B1: hu4A2 IgA2 (hu4A2-hKhA2 (P221R)) (antibody)
heavy: EVQLLESGGGLVQPGGSLRLSCAASGFTFSDYGMSWVRQAPGKGLEWVSAIGYGGGGKYYADSVKGRFTISRDNSKNTLYLQMNSLRAEDTAVYYCAKDTWWLAGLFDYWGQGTLVTVSSASPTSPKVFPLSLDSTPQDGNVVVACLVQGFFPQEPLSVTWSESGQNVTARNFPPSQDASGDLYTTSSQLTLPATQCPDGKSVTCHVKHYTNSSQDVTVPCRVPPPPPCCHPRLSLHRPALEDLLLGSEANLTCTLTGLRDASGATFTWTPSSGKSAVQGPPERDLCGCYSVSSVLPGCAQPWNHGETFTCTAAHPELKTPLTANITKSGNTFRPEVHLLPPPSEELALNELVTLTCLARGFSPKDVLVRWLQGSQELPREKYLTWASRQEPSQGTTTFAVTSILRVAAEDWKKGDTFSCMVGHEALPLAFTQKTIDRLAGKPTHVNVSVVMAEVDGTCY
light: EIVLTQSPGTLSLSPGKRATLSCRASQSVSNSYLAWYQQKPGQPPKLLIYWASTRESGVPDRFSGSGSGTDFTLTISSLQAEDVAVYYCQQYYSTPLTFGGGTKVEIKRTVAAPSVFIFPPSDEQLKSGTASVVCLLNNFYPREAKVQWKVDNALQSGNSQESVTEQDSKDSTYSLSSTLTLSKADYEKHKVYACEVTHQGLSSPVTKSFNRGEC
